Literature values in US20220127568A1, “COMPOSITIONS AND METHODS FOR GENERATING HAIR CELLS BY INHIBITING EPIGENETIC TARGETS” (Frequency Therapeutics, Inc., priority 2019, published 2022).
For at least one compound, name, drawing or mass did not settle the structure.

Amino acid sequences for entries named in this document (tags omitted).
UniProt Q15910, whole entry, species assumed: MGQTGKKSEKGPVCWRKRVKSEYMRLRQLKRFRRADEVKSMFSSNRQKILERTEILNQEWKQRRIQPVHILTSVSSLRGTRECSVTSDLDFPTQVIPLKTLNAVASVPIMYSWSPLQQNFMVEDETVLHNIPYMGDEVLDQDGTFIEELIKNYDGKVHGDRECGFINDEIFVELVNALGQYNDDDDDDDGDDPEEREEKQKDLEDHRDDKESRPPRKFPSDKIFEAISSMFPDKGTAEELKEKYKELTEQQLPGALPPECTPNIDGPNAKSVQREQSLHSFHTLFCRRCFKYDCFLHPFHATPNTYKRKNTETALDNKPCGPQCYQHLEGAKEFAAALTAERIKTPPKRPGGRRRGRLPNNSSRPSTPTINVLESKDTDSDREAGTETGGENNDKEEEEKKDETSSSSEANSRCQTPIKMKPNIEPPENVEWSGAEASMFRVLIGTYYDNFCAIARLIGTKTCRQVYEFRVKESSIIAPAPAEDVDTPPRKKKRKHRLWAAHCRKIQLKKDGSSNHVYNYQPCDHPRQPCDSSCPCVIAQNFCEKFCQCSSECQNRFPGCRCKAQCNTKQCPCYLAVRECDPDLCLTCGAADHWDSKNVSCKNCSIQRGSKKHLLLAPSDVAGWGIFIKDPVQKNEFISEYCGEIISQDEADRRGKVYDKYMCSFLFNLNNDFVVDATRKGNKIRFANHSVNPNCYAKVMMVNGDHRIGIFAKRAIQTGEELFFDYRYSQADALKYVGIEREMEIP

Columns and labels:
[1] = target: EZH2 (Homo sapiens, UniProt Q15910); settings: literature cell potency, EZH2 inhibitors; cited from earlier work
[2] = tested on: KDM7; settings: Table 9; cited from earlier work

| Compound | Lit Cell Poten [1] | Select KDM7 [2] |
| --- | --- | --- |
| Nc1ncnc2c1ncn2[C@@H]1O[C@H](C[C@@H](N)CC[C@H](N)C(=O)O)[C@@H](O)[C@H]1O [Sinefungin] | 33 nM |  |
| O=C(O)CCN(O)C(=O)CCCCCCCCC1CC1 [TC-E 5002] |  | 1, 2 μM |
